# Data: the supplement of paper PMC8728848
# The other results are listed elsewhere or left out.
# B1: B936 (Bifidobacterium sp) (protein)
# chain: MKNWKKAIALVASAAALVSVAACGPSNAGGSSDSGKKTVGFVAVGPEGGFRTANEKDIQKAFEDAGFDLTYSPTQNNDQQKQIQAFNKFVNDEVDAIILSSTEDSGWDDSLKKAAEAEIPVFTVDRNVDVKDAEAKKAIVAHIGPSNVWCGEQAAEFVNKNFPDGANGFILEGPAGLSVVKDRGTGWGNKVASNVKVLESQSANWSTDEAKTVTAGLLDKYKSDNPQFIFAQNDEMGLGAAQAVDAAGLKGKVKIITIDGTKNALQALVDGDLSYVIEYNPIFGKETAQAVKDYLDGKTVEKDIEIESKTFDAASAKEALDNNTRAY
# Columns and labels:
# Experiment in all cases: glycan array binding signal (z-score within array); higher = stronger binding
# Details in all cases: glycan notation: IUPAC condensed, linker removed
# [1] = molecular target: Gal(b1-3)GlcNAc(b1-3)Gal(b1-4)GlcNAc(b1-2)[Gal(b1-3)GlcNAc(b1-3)Gal(b1-4)GlcNAc(b1-6)]Man(a1-6)[Gal(b1-3)GlcNAc(b1-3)Gal(b1-4)GlcNAc(b1-2)Man(a1-3)]Man(b1-4)GlcNAc(b1-4)[Fuc(a1-6)]GlcNAc
# Method in brief: (§1)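 From the Consortium for Functional Glycomics database, 3228 arrays were curated, keeping only those whose protein sequence was available. Binding is given as a within-array Z-score averaged across arrays sharing a protein sequence and across linkers. Negative Z-scores can be read as non-binding.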
# [2] = molecular target: Gal(b1-3)GlcNAc(b1-3)Gal(b1-4)GlcNAc(b1-3)Gal(b1-4)GlcNAc(b1-2)[Gal(b1-3)GlcNAc(b1-3)Gal(b1-4)GlcNAc(b1-3)Gal(b1-4)GlcNAc(b1-6)]Man(a1-6)[Gal(b1-3)GlcNAc(b1-3)Gal(b1-4)GlcNAc(b1-3)Gal(b1-4)GlcNAc(b1-2)Man(a1-3)]Man(b1-4)GlcNAc(b1-4)[Fuc(a1-6)]GlcNAc
# Method in brief: as §1
# [3] = molecular target: Gal(b1-3)GlcNAc(b1-3)Gal(b1-4)GlcNAc(b1-6)[Gal(b1-3)GlcNAc(b1-3)]Gal(b1-4)Glc
# Method in brief: as §1
# [4] = molecular target: Gal(b1-3)GlcNAc(b1-3)Gal(b1-4)[Fuc(a1-3)]GlcNAc
# Method in brief: as §1
# [5] = molecular target: Gal(b1-3)GlcNAc(b1-3)Gal(b1-4)[Fuc(a1-3)]GlcNAc(b1-6)[Gal(b1-3)GlcNAc(b1-3)]Gal(b1-4)Glc
# Method in brief: as §1
# [6] = molecular target: Gal(b1-3)GlcNAc(b1-3)GalNAc
# Method in brief: as §1
# [7] = molecular target: Gal(b1-3)GlcNAc(b1-6)Gal(b1-4)GlcNAc
# Method in brief: as §1
# [8] = molecular target: Gal(b1-3)GlcNAc(b1-6)GalNAc
# Method in brief: as §1
# [9] = molecular target: Gal(b1-3)GlcNAc(b1-6)[Gal(b1-3)]GalNAc
# Method in brief: as §1
# Gal(b1-3)GlcNAc6S = molecular target: Gal(b1-3)GlcNAc6S
# Method in brief: as §1
# [10] = molecular target: Gal(b1-3)[Fuc(a1-4)]GlcNAc
# Method in brief: as §1
# [11] = molecular target: Gal(b1-3)[Fuc(a1-4)]GlcNAc(b1-2)Man
# Method in brief: as §1
# [12] = molecular target: Gal(b1-3)[Fuc(a1-4)]GlcNAc(b1-2)Man(a1-3)[Gal(b1-3)[Fuc(a1-4)]GlcNAc(b1-2)Man(a1-6)]Man(b1-4)GlcNAc(b1-4)[Fuc(a1-6)]GlcNAc
# Method in brief: as §1
# [13] = molecular target: Gal(b1-3)[Fuc(a1-4)]GlcNAc(b1-3)Gal(b1-3)[Fuc(a1-4)]GlcNAc
# Method in brief: as §1
# [14] = molecular target: Gal(b1-3)[Fuc(a1-4)]GlcNAc(b1-3)Gal(b1-4)[Fuc(a1-3)]GlcNAc
# Method in brief: as §1
# [15] = molecular target: Gal(b1-3)[Fuc(a1-4)]GlcNAc(b1-6)GalNAc
# Method in brief: as §1
# [16] = molecular target: Gal(b1-3)[GlcNAc(b1-6)]GalNAc
# Method in brief: as §1
# [17] = molecular target: Gal(b1-3)[Neu5Ac(a2-6)]GalNAc
# Method in brief: as §1
# [18] = molecular target: Gal(b1-3)[Neu5Ac(a2-6)]GlcNAc(b1-4)Gal(b1-4)Glc
# Method in brief: as §1
# [19] = molecular target: Gal(b1-3)[Neu5Ac(b2-6)]GalNAc
# Method in brief: as §1
# Gal(b1-4)Gal = molecular target: Gal(b1-4)Gal
# Method in brief: as §1
# [20] = molecular target: Gal(b1-4)GalNAc(a1-3)[Fuc(a1-2)]Gal(b1-4)GlcNAc
# Method in brief: as §1
# [21] = molecular target: Gal(b1-4)GalNAc(b1-3)[Fuc(a1-2)]Gal(b1-4)GlcNAc
# Method in brief: as §1
# Gal(b1-4)Glc = molecular target: Gal(b1-4)Glc
# Method in brief: as §1
# Gal(b1-4)Glc6S = molecular target: Gal(b1-4)Glc6S
# Method in brief: as §1
# Gal(b1-4)GlcNAc = molecular target: Gal(b1-4)GlcNAc
# Method in brief: as §1
# [22] = molecular target: Gal(b1-4)GlcNAc(a1-6)Gal(b1-4)GlcNAc
# Method in brief: as §1
# Gal(b1-4)GlcNAc(b1-2)Man = molecular target: Gal(b1-4)GlcNAc(b1-2)Man
# Method in brief: as §1
# [23] = molecular target: Gal(b1-4)GlcNAc(b1-2)Man(a1-3)Man(b1-4)GlcNAc(b1-4)GlcNAc
# Method in brief: as §1
# [24] = molecular target: Gal(b1-4)GlcNAc(b1-2)Man(a1-3)[Gal(b1-4)GlcNAc(b1-2)Man(a1-6)]Man(b1-4)GlcNAc(b1-4)GlcNAc
# Method in brief: as §1
# [25] = molecular target: Gal(b1-4)GlcNAc(b1-2)Man(a1-3)[Gal(b1-4)GlcNAc(b1-2)Man(a1-6)]Man(b1-4)GlcNAc(b1-4)[Fuc(a1-6)]GlcNAc
# Method in brief: as §1
# [26] = molecular target: Gal(b1-4)GlcNAc(b1-2)Man(a1-3)[Gal(b1-4)GlcNAc(b1-2)Man(a1-6)][Gal(b1-4)GlcNAc(b1-4)]Man(b1-4)GlcNAc(b1-4)[Fuc(a1-6)]GlcNAc
# Method in brief: as §1
# [27] = molecular target: Gal(b1-4)GlcNAc(b1-2)Man(a1-3)[Gal(b1-4)GlcNAc(b1-2)Man(a1-6)][GlcNAc(b1-4)]Man(b1-4)GlcNAc(b1-4)[Fuc(a1-6)]GlcNAc
# Method in brief: as §1
# [28] = molecular target: Gal(b1-4)GlcNAc(b1-2)Man(a1-3)[GlcNAc(b1-2)Man(a1-6)]Man(b1-4)GlcNAc(b1-4)GlcNAc
# Method in brief: as §1
# [29] = molecular target: Gal(b1-4)GlcNAc(b1-2)Man(a1-3)[GlcNAc(b1-4)][Gal(b1-4)GlcNAc(b1-2)Man(a1-6)]Man(b1-4)GlcNAc(b1-4)GlcNAc
# Method in brief: as §1
# [30] = molecular target: Gal(b1-4)GlcNAc(b1-2)Man(a1-3)[Man(a1-6)]Man(b1-4)GlcNAc(b1-4)GlcNAc
# Method in brief: as §1
# [31] = molecular target: Gal(b1-4)GlcNAc(b1-2)Man(a1-6)Man(b1-4)GlcNAc(b1-4)GlcNAc
# Method in brief: as §1
# [32] = molecular target: Gal(b1-4)GlcNAc(b1-2)Man(a1-6)[GlcNAc(b1-2)Man(a1-3)]Man(b1-4)GlcNAc(b1-4)GlcNAc
# Method in brief: as §1
binder,measurement,setting,value
B1,glycan array binding signal (z-score),[1],0.996
same,glycan array binding signal (z-score),[2],1.02
same,glycan array binding signal (z-score),[3],0.08
same,glycan array binding signal (z-score),[4],-0.132
same,glycan array binding signal (z-score),[5],-0.335
same,glycan array binding signal (z-score),[6],0.078
same,glycan array binding signal (z-score),[7],-0.045
same,glycan array binding signal (z-score),[8],0.725
same,glycan array binding signal (z-score),[9],0.367
same,glycan array binding signal (z-score),Gal(b1-3)GlcNAc6S,0.196
same,glycan array binding signal (z-score),[10],0.47
same,glycan array binding signal (z-score),[11],1.8
same,glycan array binding signal (z-score),[12],1.53
same,glycan array binding signal (z-score),[13],-0.183
same,glycan array binding signal (z-score),[14],0.293
same,glycan array binding signal (z-score),[15],1.04
same,glycan array binding signal (z-score),[16],0.358
same,glycan array binding signal (z-score),[17],-0.264
same,glycan array binding signal (z-score),[18],-0.509
same,glycan array binding signal (z-score),[19],-0.224
same,glycan array binding signal (z-score),Gal(b1-4)Gal,-0.536
same,glycan array binding signal (z-score),[20],0.315
same,glycan array binding signal (z-score),[21],-0.302
same,glycan array binding signal (z-score),Gal(b1-4)Glc,-0.221
same,glycan array binding signal (z-score),Gal(b1-4)Glc6S,0.168
same,glycan array binding signal (z-score),Gal(b1-4)GlcNAc,-0.78
same,glycan array binding signal (z-score),[22],-0.115
same,glycan array binding signal (z-score),Gal(b1-4)GlcNAc(b1-2)Man,0.182
same,glycan array binding signal (z-score),[23],-0.311
same,glycan array binding signal (z-score),[24],-0.135
same,glycan array binding signal (z-score),[25],0.084
same,glycan array binding signal (z-score),[26],-0.458
same,glycan array binding signal (z-score),[27],-0.66
same,glycan array binding signal (z-score),[28],0.478
same,glycan array binding signal (z-score),[29],-0.716
same,glycan array binding signal (z-score),[30],-0.822
same,glycan array binding signal (z-score),[31],-0.795
same,glycan array binding signal (z-score),[32],0.29

# Reformatted: entries from further up.
binder | measurement | setting | value
B1 | glycan array binding signal (z-score) | Gal(b1-4)GlcNAc | -0.78
same | glycan array binding signal (z-score) | [22] | -0.115
